From US8507195B2, “MiRNAs dysregulated in triple-negative breast cancer” (The Regents of the University of Colorado, priority 2009, dated 2013)
At least one compound was matched to its structure with a doubt left.

Tests used:
MCF7 cells [1] = experiment: miRNA microarray profiling of estradiol-treated MCF7 cells; assay type: cell-based; settings: MCF7, 10 nM estradiol
MCF7 cells [2] = experiment: Real time RT-PCR of miRNAs in hormone-treated MCF7 cells; assay type: cell-based
Experimental: Hormone Treatments. MCF7 cells were grown in phenol red-free media containing charcoal stripped serum for 24 hours prior to hormone treatments. The cells were treated with ethanol, 10 nM estradiol or a combination of 10 nM estradiol and 1 mM ICI 182,780 (ICI, Tocris Bioscience) for 6 h, 24 h or 48 h, as indicated, before harvesting RNA using Trizol (Invitrogen) as per the manufacturer's instructions.
Real Time RT-PCR. Poly A tailing and reverse transcription was performed using the NCode miRNA qRT-PCR kit (Invitrogen) as per manufacturer's instructions. SYBR green real time RT-PCR was performed using the Universal Forward Primer (Invitrogen) and miRNA specific primers. The specific primers used were: miR-193b 5′-[…]-3′ (SEQ ID NO: 10); miR-19b 5′-[…]-3′ (SEQ ID NO: 11); miR-20a 5′-[…]-3′ (SEQ ID NO: 12); miR-106a 5′-[…]-3′ (SEQ ID NO: 13); and miR-92b* 5′-[…]-3′ (SEQ ID NO: 14). Reported values are the means and standard errors of 3 biological replicates.
For miR-22, miR-221 and miR-7, taqman real time PCR was performed. Prior to generating cDNA, mRNA was treated with DNase1 (Invitrogen) for 15 min at room temperature. RNA was reverse transcribed into cDNA in a reaction containing reaction buffer, 10 mM DTT, 1 mM dNTPs, RNAse inhibitor (Promega), random hexamers (250 ng) and 200 U of MMUV-RT (ABI). The reaction proceeded at 25° C. for 10 min, then at 37° C. for 1 h. For normalization, real time RT-PCR was performed on the cDNA using ribosomal RNA primers and probe (ABI). TaqMan mRNA Reverse Transcription kit was used to generate cDNA for real time RT-PCR reaction in conjunction with a miR-22, miR-221 or miR-7 specific primers and probe (ABI). Reported values are the means and standard errors of three biological replicates.
The relative mRNA or miRNA levels were calculated using the comparative Ct method (ΔΔCt). Briefly, the Ct (cycle threshold) values for the rRNA were subtracted from Ct values of the target gene to achieve the ΔCt value. The 2^−ΔCt was calculated for each sample and then each of the values was then divided by a control sample to achieve the relative miRNA levels (ΔΔCt).

[3] = MCF7, 10 nM estradiol, 48 h, versus vehicle

C[C@]12CC[C@@H]3c4ccc(O)cc4CC[C@H]3[C@@H]1CC[C@@H]2O [estradiol]
miR-7 level in miRNA microarray (MCF7 cells [1]): increased | miR-324-5p level in miRNA microarray (MCF7 cells [1]): increased | miR-7 level by real time rt-PCR (MCF7 cells [2]; 10 nM estradiol, 24 h, versus ethanol vehicle): increased | relative miR-92b* level (MCF7 cells [2]; MCF7, 10 nM estradiol, 24 h, versus vehicle): decreased | relative miR-19b level (MCF7 cells [2]; [3]): increased | relative miR-20a level (MCF7 cells [2]; [3]): increased | relative miR-106a level (MCF7 cells [2]; [3]): increased
